From patent US20220010008A1 come the findings set out here.

No constants are given. Whether binding was seen depends on the method and setting. Some results given as binding are weak or reduced against the parent protein; the word gives no strength.

Sequences and labels used below:
T1: mouse IL-5 (mouse) (UniProt P04401)
T1 sequence (looked up): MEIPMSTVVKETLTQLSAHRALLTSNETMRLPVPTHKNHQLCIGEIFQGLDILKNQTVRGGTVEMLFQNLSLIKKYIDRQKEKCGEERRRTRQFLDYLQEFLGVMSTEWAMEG

B1: 154F10G8 (murine hybridoma antibody) (antibody, V domains shown)
VH: QVQLQQPGAELVKPGASVKLSCKASGYTFTSYWITWVKQRPGQGLEWIGDIYPGSGSTFYNEKFKSEATLTVDTSSSTAYMQLSSLTSEDSAVFYCSTETTLGYWGQGTTLTVSS
VL: DVLMTQTPLSLPVSLGDQASISCRSSQSIVHNNGNTYLEWYLQKPGQSPKLLIYKVSNRFSGVPDRFSGSGSGTDFTLKISRVEAEDLGVYYCFQGSHVPFTFGSGTKLEIK
B2: 154F10G8 mouse-human chimeric antibody (antibody, human IgG4, V domains shown)
VH: QVQLQQPGAELVKPGASVKLSCKASGYTFTSYWITWVKQRPGQGLEWIGDIYPGSGSTFYNEKFKSEATLTVDTSSSTAYMQLSSLTSEDSAVFYCSTETTLGYWGQGTTLTVSS
VL: DVLMTQTPLSLPVSLGDQASISCRSSQSIVHNNGNTYLEWYLQKPGQSPKLLIYKVSNRFSGVPDRFSGSGSGTDFTLKISRVEAEDLGVYYCFQGSHVPFTFGSGTKLEIK
B3: 102A2E11B6 (murine hybridoma antibody) (antibody, V domains shown)
VH: QVQLRQSGPGLVQPSQSLSITCTVSGFSLTSYGVHWVRQSPGKGLEWLGVIWSGGSTDYNAVFMSRLSISKDSSKSQVFFKMNSLQTDDTAIYYCARNRYVLDYWGQGTSVTVSS
VL: DIVMTQSPSSLSVSAGERVTMRCKSSQSLLTSGDQKNHLAWYQQKPGQPPKLLIYGASTRESGVPDRFTGSGSGTDFTLTITSVQAEDLAVYYCQNDHSFPLTFGAGTKLELK
B4: 102A2E11B6 mouse-human chimeric antibody (antibody, human IgG4, V domains shown)
VH: QVQLRQSGPGLVQPSQSLSITCTVSGFSLTSYGVHWVRQSPGKGLEWLGVIWSGGSTDYNAVFMSRLSISKDSSKSQVFFKMNSLQTDDTAIYYCARNRYVLDYWGQGTSVTVSS
VL: DIVMTQSPSSLSVSAGERVTMRCKSSQSLLTSGDQKNHLAWYQQKPGQPPKLLIYGASTRESGVPDRFTGSGSGTDFTLTITSVQAEDLAVYYCQNDHSFPLTFGAGTKLELK
B5: 69F2F3 (murine hybridoma antibody) (antibody, V domains shown)
VH: QVQLKQSGPGLVQPSQSLSITCTVSGFSLSNYGVHWVRQSPGKGLEWLGVIWSGGSTDYNAAFKSRLSITKDNSKSQVVFRMNSLQTDDTATYYCARNKDFLDYWGQGTKFTVSS
VL: DIVMTQSPSSLTVTAGEKVTMTCKSSQGLLNSGNQKNYLTWYQQKPGQPPKLLIYWASTRESGVPDRFTGSGSGTDFTLTISSVQAEDLAVYYCQNDYHFPLTFGAGTKLELK
B6: 69F2F3 mouse-human chimeric antibody (antibody, human IgG4, V domains shown)
VH: QVQLKQSGPGLVQPSQSLSITCTVSGFSLSNYGVHWVRQSPGKGLEWLGVIWSGGSTDYNAAFKSRLSITKDNSKSQVVFRMNSLQTDDTATYYCARNKDFLDYWGQGTKFTVSS
VL: DIVMTQSPSSLTVTAGEKVTMTCKSSQGLLNSGNQKNYLTWYQQKPGQPPKLLIYWASTRESGVPDRFTGSGSGTDFTLTISSVQAEDLAVYYCQNDYHFPLTFGAGTKLELK

For this test, the target named is T1, mouse IL-5 (mouse). Kind of test: ELISA. A general note: An ELISA detects its analyte on a solid surface through an enzyme-linked reagent.
With B1, the binding entry was “binds”. As for B2, the entry is “binds”. As for B3, the entry is “binds”; as for B4, “binds”; as for B5, “binds”. As for B6, the entry is “binds”.
